Results on two molecules are retold here after article doi:10.1101/2022.05.16.492168.

By UniProt entry, the sequences of proteins in these tests, tags left out. Where a name states a change or a piece, a line headed by the entry shows the natural chain unless it says otherwise.
UniProt Q8L8T7: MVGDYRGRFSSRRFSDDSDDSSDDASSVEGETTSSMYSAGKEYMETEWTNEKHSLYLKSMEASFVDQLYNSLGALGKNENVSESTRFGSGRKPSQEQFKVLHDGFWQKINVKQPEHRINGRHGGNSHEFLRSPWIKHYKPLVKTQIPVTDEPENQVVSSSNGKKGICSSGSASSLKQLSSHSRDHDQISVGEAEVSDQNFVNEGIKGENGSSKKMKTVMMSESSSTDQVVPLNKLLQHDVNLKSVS

These are yes or no findings as the source states them, for the method shown. Binding seen in cells or lysates may run through a third protein. A yes stands for co-enrichment or nearness to the bait. Other partners may have been found. For part of these data: Sequences can lack the tags named with a protein.

For assay [1], the target named is YFP-COR27 (COLD REGULATED GENE 27) (Arabidopsis thaliana) (UniProt Q8L8T7). The assay can be described thus: affinity purification with mass spectrometry.
Assay [2] addresses T1, GFP-COR28 (COLD REGULATED GENE 28) (Arabidopsis thaliana) (UniProt Q8L983).
T1 sequence: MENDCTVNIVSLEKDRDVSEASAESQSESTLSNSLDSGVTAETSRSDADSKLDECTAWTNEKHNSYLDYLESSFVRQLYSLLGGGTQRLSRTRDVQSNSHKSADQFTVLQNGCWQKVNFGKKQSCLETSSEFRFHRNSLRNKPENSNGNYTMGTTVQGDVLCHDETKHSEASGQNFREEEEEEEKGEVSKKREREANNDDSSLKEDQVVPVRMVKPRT
The assay can be described thus: affinity purification with mass spectrometry.

B1: NIGHT LIGHT INDUCIBLE AND CLOCK REGULATED 2 (LNK2), endogenous (protein, UniProt F4JCX9 1-663)
chain: MFDWEEEELTNMIWGDDAETGDHIVPFKVRSEQLNKKEQIEESKTAEQKITGTKIDLHDKNLGSSSSHNVDEGLPQPDFCMSSWPDTSLTNATKVDQDLSATELSKCLAEPVRYDSTRGGAFLLKQSCFTWVRSFQSNHFKSCVLTLFLPEKTSELGKGPDIFHSSDESKEQGDFDDYSWANIGSFDDLDRMFSDGFAAMMSLYLVMAVSAVVMSYGHLLKITEFEQQENQQFPLTGKANGLSSQSVPSVRVTLKADQYREHKGQPSVEDQPYQQNKMMKFSKMPGTSEARPFQELYGQRIPFSNSAGKCVNQLAPPQSSLMAVNLLSESEGSGTSHYSHMPNQYMANSAFGNLANPYSSVPVISAVQHPDVRNQLMHPSYNPATATSVNMATDASARPSTMTPQEKLEKLRRRQQMQAMLAIQRQQQQFSHQVPVADQSITQNCLQDIPLQLVDKTNLQGLTAMPSFDPSSSLEQDDSGKFAAAVDNSAEFAVLYRLQDVVAKLDMGTRTCIRDSLFRLAGSAAQRHYTSDTSHSNKTSQDDQEVIPREESRYRYAGMPDTEAVTNPTDRTVAHLLFHRPFDMLAAKRMEGPESPASSKMGTEEKGNFPKCSIRETHLTKQKAQKEEGPADSLALGNAPNSGSSSTVGERVVEASQGNKRKL
Consider B1, for which the binding entry in assay [1] is given as “binds”.

B2: PHYD (protein, UniProt P42497 1-1164)
chain: MVSGGGSKTSGGEAASSGHRRSRHTSAAEQAQSSANKALRSQNQQPQNHGGGTESTNKAIQQYTVDARLHAVFEQSGESGKSFDYSQSLKTAPYDSSVPEQQITAYLSRIQRGGYTQPFGCLIAVEESTFTIIGYSENAREMLGLMSQSVPSIEDKSEVLTIGTDLRSLFKSSSYLLLERAFVAREITLLNPIWIHSNNTGKPFYAILHRVDVGILIDLEPARTEDPALSIAGAVQSQKLAVRAISHLQSLPSGDIKLLCDTVVESVRDLTGYDRVMVYKFHEDEHGEVVAESKRNDLEPYIGLHYPATDIPQASRFLFKQNRVRMIVDCYASPVRVVQDDRLTQFICLVGSTLRAPHGCHAQYMTNMGSIASLAMAVIINGNEEDGNGVNTGGRNSMRLWGLVVCHHTSARCIPFPLRYACEFLMQAFGLQLNMELQLALQVSEKRVLRMQTLLCDMLLRDSPAGIVTQRPSIMDLVKCNGAAFLYQGKYYPLGVTPTDSQINDIVEWLVANHSDSTGLSTDSLGDAGYPRAAALGDAVCGMAVACITKRDFLFWFRSHTEKEIKWGGAKHHPEDKDDGQRMNPRSSFQTFLEVVKSRCQPWETAEMDAIHSLQLILRDSFKESEAMDSKAAAAGAVQPHGDDMVQQGMQEIGAVAREMVRLIETATVPIFAVDIDGCINGWNAKIAELTGLSVEDAMGKSLVRELIYKEYKETVDRLLSCALKGDEGKNVEVKLKTFGSELQGKAMFVVVNACSSKDYLNNIVGVCFVGQDVTGHKIVMDKFINIQGDYKAIIHSPNPLIPPIFAADENTCCLEWNTAMEKLTGWPRSEVIGKLLVREVFGSYCRLKGPDALTKFMIVLHNAIGGQDTDKFPFPFFDRKGEFIQALLTLNKRVSIDGKIIGAFCFLQIPSPELQQALEVQRRQESEYFSRRKELAYIFQVIKNPLSGLRFTNSLLEDMDLNEDQKQLLETSVSCEKQISKIVGDMDVKSIDDGSFLLERTEFFIGNVTNAVVSQVMLVVRERNLQLIRNIPTEVKSMAVYGDQIRLQQVLAEFLLSIVRYAPMEGSVELHLCPTLNQMADGFSAVRLEFRMACAGEGVPPEKVQDMFHSSRWTSPEGLGLSVCRKILKLMNGGVQYIREFERSYFLIVIELPVPLMMMMPSS
On to B2, for which the binding result in assay [1] and in assay [2] was “binds” in each case.
